These results are taken from PubChem BioAssay AID493014 (National Center for Advancing Translational Sciences (NCATS), 2011).

This assay in a line: qHTS Assay to Find Inhibitors of Chronic Active B-Cell Receptor Signaling. The following applies: ABC-DLBCL IkBa-CBG/CBR reporter, luminescence ratio (green luciferase fused to IkBa over red control in TMD8 lymphoma cells), 4 h. A digest of the protocol: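 TMD8 human ABC-DLBCL cells with doxycycline-inducible IκBα–green luciferase fusion and unfused red luciferase, in 0.5% FBS medium; compounds up to 46 uM, 4 h at 37C. Green/red luminescence ratio, filter-overlap corrected, fitted to concentration-response curves.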

Where [1] appears, read: measured here: CBR red luminescence, cell number.
The mark [2] stands for this setting: measured here: IkBa-CBG green luminescence.

Some of the results follow. The main result of the screen is listed elsewhere. These columns were measured beside it and carry no call. Most of these compounds were active or inconclusive in the main read-out, so they are no random draw. The note in brackets gives the kind of curve behind each potency; many fits are weak.

Regarding `Cc1cccc(-c2noc(CN(C(=O)c3ccc4c(c3)OCO4)C(C)C)n2)c1`, under setting [1], the AC50 was 0.103 µM [rising, full curve, poor fit].
For the molecule `CCOC(=O)CNC(=O)c1cn(C)c(=O)c2cc(OC)c(OC)cc12`, the AC50 under setting [1] is 35.5 µM [falling, single point].
With `COc1ccc(-c2ccc(=O)n(CC(=O)Nc3ccc(C)cc3C)n2)cc1`, under setting [1], the AC50 was 35.5 µM [rising, single point].
Consider `Cn1c(C2=C(O)CN(Cc3ccccc3)C2=N)nc2ccccc21`, for which the AC50 was 6.31 µM [rising, single point] under setting [1] and 11.2 µM [falling, partial curve, poor fit] under setting [2].
Consider `Cc1ccc(-c2ccc(CCC(=O)O)n2-c2cccc(O)c2)cc1`, for which the AC50 under setting [1] was 11.6 µM [rising, partial curve].
Take `COC(=O)COc1cccc2c(=O)n(CC(=O)NCc3ccccc3)ccc12`: the AC50 under setting [1] was 12.6 µM [rising, partial curve] and the AC50 under setting [2] is 10 µM [falling, partial curve].
As to `CN1CCN(CCCNC(=O)c2ccc(/C=C3\Oc4ccccc4N(Cc4ccccc4F)C3=O)cc2)CC1`, the AC50 under setting [1] was 5.62 µM [rising, single point].
For the molecule `O=C(CNC(=O)c1cn2ccccc2n1)Nc1ccc(F)c(F)c1`, the AC50 under setting [1] was 18.4 µM [falling, single point].
On to `O=C(O)C1CCN(C(=O)c2ccc(Cl)cc2)CC1`, for which, under setting [1], the AC50 was 0.58 µM [falling, partial curve, poor fit].
As to `COc1cc(/C=N/n2nnnc2N)ccc1OC(C)C`, the AC50 under setting [1] is 12.6 µM [rising, partial curve].
On the same count and under the same terms, in the case of `S=C1Cc2ccccc2C(c2ccc(Cl)cc2)N1` (centres undefined) it was 6.31 µM [rising, full curve, poor fit]; in that of `O=C(NNC(=O)c1cccs1)c1ccc([N+](=O)[O-])cc1`, 0.562 µM [falling, full curve]; in that of `CCOc1ccc(N/C=C/C(=O)c2cc(OC)c(OC)c(OC)c2)cc1`, 14.1 µM [rising, partial curve, poor fit].
For the molecule `Cn1c(=O)[nH]c(=O)c2c1nc(N/N=C/c1cccnc1)n2Cc1ccc(Cl)cc1`, the AC50 under setting [1] was 11.2 µM [rising, partial curve, poor fit].
On the same count and under the same terms, then `COc1ccc(CC(=O)OCC(=O)NCc2ccc(Cl)cc2)cc1`, with 0.447 µM [rising, full curve, poor fit]; and `S=c1cnc2ccccc2[nH]1`, with 12.6 µM [rising, partial curve, poor fit]; and `CCc1ccc(/C=C2\SC(=S)N(CCCC(=O)Nc3nccs3)C2=O)cc1`, with 11.6 µM [falling, partial curve, poor fit].
